The results in this text go back to PubChem BioAssay AID493014 (National Center for Advancing Translational Sciences (NCATS), 2011).

This experiment can be described thus: qHTS Assay to Find Inhibitors of Chronic Active B-Cell Receptor Signaling. As to conditions: ABC-DLBCL IkBa-CBG/CBR reporter, luminescence ratio (green luciferase fused to IkBa over red control in TMD8 lymphoma cells), 4 h. A digest of the protocol: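 Doxycycline induced both beetle luciferases in TMD8 lymphoma cells; IKK-driven degradation limits the IkappaBalpha-fused green signal, while red luminescence normalises for cell number and nonspecific effects. Compounds tested up to 46 uM, 4 hrs.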
(In general: Quantitative high-throughput screening tests each substance at several concentrations.)

[1] abbreviates: measured here: CBR red luminescence, cell number.
Where [2] appears, read: measured here: IkBa-CBG green luminescence.

For orientation: AC50 means the midpoint of the concentration-response curve, whichever way the signal moves.

Molecules are shown by their SMILES. The list shows a part of the results. The main result of the screen is listed elsewhere. These columns were measured beside it and carry no call. Most of these compounds were active or inconclusive in the main read-out, so they are no random draw. Potencies come from curve fits of mixed quality, noted in brackets.

In the case of `CCN(CC)c1ccc(NC(=O)c2cc(OC)cc(OC)c2)c(C)c1`, the AC50 under setting [1] is 7.31 µM [rising, partial curve, poor fit] and the AC50 under setting [2] is 14.6 µM [falling, partial curve, poor fit]. As for `CCCn1nnnc1SCC(=O)NNC(=O)C1CCCCC1`, the AC50 under setting [1] is 0.631 µM [rising, full curve, poor fit]. On to `N#Cc1cccc(NC(=O)CNc2cccc(S(=O)(=O)N3CCCCC3)c2)c1`, for which the AC50 runs as follows: under setting [1], 16.4 µM [falling, single point]; under setting [2], 7.31 µM [rising, partial curve, poor fit]. For `N/C(=C\C(=O)c1cc(Cl)ccc1O)C(Cl)(Cl)Cl`, the AC50 by setting is: under setting [1], 3.98 µM [rising, full curve, poor fit]; under setting [2], 7.94 µM [falling, partial curve]. For the molecule `COc1ccc(F)cc1CN1CCN(C(=O)CCC(=O)Nc2nnc(C3CCCCC3)s2)CC1`, under setting [1], the AC50 is 1.41 µM [rising, partial curve, poor fit]. On the same count and under the same terms, the value for `Clc1ccc2c(c1)CCc1cccnc1C2=C1CCNCC1` was 12.6 µM [falling, partial curve, poor fit]; that for `Nc1c(C(=O)NCc2ccco2)c2nc3ccccc3nc2n1CCc1ccccc1F` was 20.6 µM [falling, single point]; that for `COCC(=O)Nc1nc(-c2ccccc2)ns1` was 8.2 µM [falling, partial curve].

As for `COCCNC(=O)CCn1nc(-c2ccc(C)cc2)ccc1=O`, the AC50 under setting [1] is 15.8 µM [falling, partial curve, poor fit].

In the case of `Cc1ccc(C(=O)NC(=S)N(C)C2CCCCC2)cc1`, under setting [1], the AC50 was 0.562 µM [rising, full curve, poor fit]. Still for that read-out and setting: the value for `Cc1c(Cl)cccc1-n1c(SCC(=O)N(C)Cc2ccccc2)nnc1-c1ccncc1` was 2.31 µM [falling, partial curve, poor fit]; that for `CCOC(=O)c1c(NC(=O)C2CCCCC2C(=O)O)sc2c1CCCCC2` (centres undefined) was 22.4 µM [falling, single point]; that for `CC1CCCCN1C(=O)c1ccc(C(=O)Nc2ccc(F)cc2)cc1` (centres undefined) was 14.6 µM [falling, single point]. On to `COc1cc(C2C3=C(CC(C)(C)CC3=O)N(C)C3=C2C(=O)CC(C)(C)C3)cc(Br)c1O`, for which the AC50 under setting [1] was 6.31 µM [rising, single point]. Take `O=C(Nc1ccc(Cl)cc1)N1CCC(c2nc(-c3cccs3)no2)CC1`: the half-maximal activity concentration (AC50) under setting [1] is 0.206 µM [rising, full curve].

On to `CCCCN1C(=O)C(O)(CC(=O)c2ccccn2)c2ccccc21` (centres undefined), for which the AC50 under setting [1] is 20 µM [rising, single point]. On the same count and under the same terms, then `CCOCCCNC(=O)C1CCN(C(=O)Nc2ccc(Cl)cc2)CC1`, with 18.4 µM [rising, partial curve, poor fit]; and `CC(Oc1ccccc1Cl)C(=O)Nc1ccccc1C(=O)N1CCOCC1` (centres undefined), with 0.631 µM [rising, partial curve, poor fit]. For the molecule `O=C(NC1CCCC1)c1ccccc1OCc1ccccc1`, the AC50 under setting [1] was 5.62 µM [rising, single point] and the AC50 under setting [2] was 25.1 µM [rising, partial curve, poor fit].

For `COc1ccc(/C=C/C(=O)Nc2cccc(F)c2)cc1S(=O)(=O)N1CCOCC1`, the AC50 under setting [1] is 17.8 µM [falling, single point]. `CCN1CCN(S(=O)(=O)c2ccc3ccccc3c2)CC1`: the AC50 under setting [1] was 6.51 µM [rising, single point]. For `Cc1c(C(=O)Nc2ccc(F)cc2)oc2ccc(S(=O)(=O)N3CCCCCC3)cc12`, the AC50 under setting [1] was 3.55 µM [falling, full curve] and the AC50 under setting [2] is 1.12 µM [rising, full curve, poor fit]. On to `Cn1cc(Br)c(C(=O)NNC(=O)c2ccc(Br)cc2)n1`, for which the AC50 under setting [1] was 16.4 µM [falling, partial curve]. Take `CN(C(=O)c1ccncc1)c1nnc(-c2ccccn2)s1`: the AC50 under setting [1] is 0.411 µM [rising, full curve, poor fit]. On to `CCOC(=O)N/N=C/c1c[nH]c2ccccc12`, for which the AC50 under setting [1] is 35.5 µM [falling, single point]. Still for that read-out and setting: then `CC(NC(=O)c1cccc(S(=O)(=O)N2CCN(C)CC2)c1)c1ccc(Cl)cc1Cl` (centres undefined), with 32.6 µM [falling, partial curve, poor fit]; and `O=C1CC(N2CCN(c3ccccc3Cl)CC2)C(=O)N1c1cccc(F)c1` (centres undefined), with 29.1 µM [rising, single point]. Still for that read-out and setting: the value for `CCOC(=O)NC(=O)c1cn(-c2ccc(OC)cc2)c(=O)[nH]c1=O` was 22.4 µM [rising, single point]. As to `COc1ccccc1/C=C/C=N/NC(=O)c1ccccn1`, under setting [1], the AC50 was 1.41 µM [falling, full curve]. The same measure, in the same setting: the value for `CC12CCC(=O)N1C(C(=O)N1CCN(S(=O)(=O)c3cccc(C(F)(F)F)c3)CC1)CS2` (centres undefined) was 2.31 µM [rising, partial curve]. Regarding `CCCc1cc(=O)oc2cc(OCC(=O)NCCCn3ccnc3)ccc12`, under setting [1], the AC50 was 12.6 µM [rising, partial curve, poor fit]. The same measure, in the same setting: then `COc1ccc2c(C(=O)NCCCCO)c(-c3ccc(S(C)(=O)=O)cc3)sc2c1`, with 6.51 µM [rising, partial curve, poor fit]; and `COc1ccc(-c2noc(CCCC(=O)NCc3ccco3)n2)cc1OC`, with 7.94 µM [falling, partial curve]; and `COc1ccc(NC(=O)CN(C)C(=O)c2ccc(OCc3ccccc3)c(OC)c2)cc1`, with 29.1 µM [falling, single point]. `Cc1ccc(C2CCN(C(=S)NC(C)(C)C)C2)cc1` (centres undefined): the AC50 runs as follows: under setting [1], 5.62 µM [rising, full curve]; under setting [2], 11.2 µM [rising, partial curve, poor fit]. In the case of `Nc1nnnn1/N=C/c1ccccc1OCc1ccc(Cl)cc1`, the AC50 under setting [1] was 4.11 µM [rising, partial curve, poor fit]. On the same count and under the same terms, the value for `S=c1[nH]nc(-c2cc(-c3ccccc3)n[nH]2)n1/N=C/c1ccc(Br)s1` was 35.5 µM [falling, single point]; that for `COc1ccccc1OCC(=O)N/N=C1\CCCCc2ccccc21` was 35.5 µM [falling, single point]; that for `Cc1cc(C)nc(NS(=O)(=O)c2ccc(N/C=C3\CCCC3=O)cc2)n1` was 11.6 µM [rising, partial curve, poor fit]. Same read-out and setting: the value for `Cc1ccc(-n2nnnc2Sc2nc([N+](=O)[O-])nn2C)cc1C` was 8.91 µM [falling, partial curve, poor fit]; that for `Cn1nc([N+](=O)[O-])nc1Sc1cccc2cccnc12` was 35.5 µM [falling, single point]; that for `CCCCC(=O)Nc1ccc(C)c(S(=O)(=O)N2CCCCCC2)c1` was 29.1 µM [rising, single point].

For `O=C(c1cc2cc(Br)ccc2o1)N1CCN(c2ccccc2)CC1`, the concentration at half-maximal activity (AC50) under setting [1] was 0.891 µM [falling, full curve].

Turning to `COC(=O)c1cnc(Oc2ccc(NC(=O)NC(=O)c3c(OC)cccc3OC)cc2)cc1C(F)(F)F`, the AC50 is, setting by setting: under setting [1], 3.98 µM [rising, full curve, poor fit]; under setting [2], 3.98 µM [falling, full curve]. Take `CCC1CCCCN1C(=O)COC(=O)c1cccs1` (centres undefined): under setting [1], the AC50 was 5.8 µM [falling, single point]. On the same count and under the same terms, then `CN(CC(O)Cn1cnc2c1c(=O)n(C)c(=O)n2C)c1ccccc1` (centres undefined), with 12.6 µM [rising, partial curve, poor fit].

Regarding `C=CCNC(=O)/C(C#N)=C/c1cn(-c2ccccc2)nc1-c1ccc(OC)c([N+](=O)[O-])c1`, the AC50 runs as follows: under setting [1], 14.6 µM [rising, single point]; under setting [2], 2.59 µM [falling, full curve].

Take `CN(CCC(=O)Nc1ccc(Br)cc1)Cc1ccccc1`: the AC50 under setting [1] was 13 µM [falling, partial curve, poor fit]. For the molecule `COc1cccc(C(=O)NNC(=O)C(=O)Nc2ccc(C)c(Cl)c2)c1`, under setting [1], the AC50 is 8.91 µM [falling, partial curve, poor fit]. Same read-out and setting: then `COc1ccc(S(=O)(=O)N2CCC(C(=O)NC3CCCCC3)CC2)cc1OC`, with 32.6 µM [rising, partial curve, poor fit]; and `O=c1cc(CSc2nnc(Nc3ccccc3F)s2)nc2sccn12`, with 11.2 µM [falling, partial curve, poor fit]. For the molecule `Cc1ccc(S(=O)(=O)Nc2cc(-c3nn(C)c(=O)c4ccccc34)ccc2N2CCOCC2)cc1`, the AC50 by setting is: under setting [1], 18.4 µM [rising, single point]; under setting [2], 20.6 µM [falling, single point]. For the molecule `Cc1ccc(S(=O)(=O)N(C)C)cc1NC(=O)c1ccccc1Br`, the AC50 under setting [1] is 0.1 µM [rising, full curve, poor fit]. The same measure, in the same setting: the value for `CCOc1ccccc1C(C(=O)NCCOC)N(CCOC)C(=O)Cn1nnc2ccccc21` (centres undefined) was 0.0891 µM [rising, full curve, poor fit]; that for `O=C(Nc1cccc([N+](=O)[O-])c1)c1ccc2nsnc2c1` was 15.8 µM [falling, single point]. On the same count and under the same terms, then `O=C(Cc1nc(=O)c2ccccc2s1)Nc1ccccc1`, with 5.01 µM [falling, full curve]; and `CCOc1ccccc1N(CC(=O)N/N=C/c1cc(Br)ccc1OC)S(C)(=O)=O`, with 29.1 µM [falling, single point].

For the molecule `Cc1[nH]c2c(C)cccc2c1CN1CCC(CO)(Cc2ccccc2)CC1`, under setting [1], the AC50 was 6.31 µM [falling, partial curve]. As for `CSc1ccccc1NC(=O)CSCc1ccccc1Br`, under setting [1], the AC50 was 5.62 µM [falling, single point]. The same measure, in the same setting: then `COCc1nc2oc3ccc(F)cc3c(=O)c2cc1C(=O)OC`, with 15.8 µM [rising, partial curve, poor fit].
